# Experimental data from PubChem BioAssay AID445 (National Center for Advancing Translational Sciences (NCATS), 2006).
# “And” between values parts separate entries of the source, which are not always exact repeats. Equal values may be shown once. The list shows a part of the results. Further columns of the screen follow, without active or inactive calls. Compounds called inactive in the main read-out are mostly missing here. Potencies come from curve fits of mixed quality, noted in brackets.
# Assay: IkB Signaling
# Details: ABC-DLBCL IkBa-CBG/CBR dual luciferase ratio (green luciferase fused to IkBa over red control in OCI-Ly3 lymphoma cells), 4 h
# Procedure, shortened: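 Luminescence ratio of IκBα-fused green versus native red beetle luciferase in OCI-Ly3 cells, 4 h post-doxycycline with compound; red signal alone, scaled from basal (0%) to zero light (-100%), flagged nonspecific or cytotoxic effects.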
# [1] = measured here: control luc red channel unless noted
# [2] = measured here: IkB-luc green channel
# [3] = measured here: control luc red channel
compound,measurement,setting,value
COc1ccccc1Nc1nn2c(=O)c3ccc(C(=O)NC4CCCCC4)cc3nc2s1,AC50,[1],"0.1 µM [rising, full curve]"
O=C(c1ccccc1)n1nc(-c2ccccc2)nc1NCc1ccco1,AC50,[1],"15.8 µM [falling, partial curve]"
O=C(CSc1nc2ccccc2o1)c1cc2ccccc2oc1=O,AC50,[1],"12.6 µM [falling, partial curve]"
CCOC(=O)N1CCc2c(sc(NCc3ccc(N(C)C)cc3)c2C(=O)Nc2ccccc2OCC)C1,AC50,[1],"10 µM [falling, partial curve]"
Nc1ccc2nc(-c3ccc(Cl)cc3)[nH]c2c1,AC50,[1],"15.8 µM [falling, partial curve]"
COc1cccc(C2C=C(c3ccc(C)cc3)Nc3c(C(=O)Nc4ccc(F)cc4)cnn32)c1OC (stereo not given),AC50,[1],"20 µM [falling, single point]"
CC(C)(C)c1cc(CNC2CS(=O)(=O)C[C@@H]2O)cc(C(C)(C)C)c1O (stereo not given in full),AC50,[1],"12.6 µM [falling, partial curve]"
COc1ccc(CN(C(=O)c2ccc(OCC(C)C)cc2)C2CCS(=O)(=O)C2)cc1 (stereo not given),AC50,[1],"7.94 µM [falling, partial curve]"
COc1ccc(CCNC(=O)CCCCn2c(=O)c3ccccc3n(Cc3cccc(C)c3)c2=O)cc1OC,AC50,[1],"39.8 µM [falling, single point]"
Cc1nc2ncnn2c(N2CCN(c3cccc(C(F)(F)F)c3)CC2)c1C,AC50,[1],"15.8 µM [falling, partial curve]"
CCOc1ccc(CCNc2ncnc3onc(C)c23)cc1OCC,AC50,[1],"15.8 µM [falling, partial curve, poor fit]"
O=c1oc(Cl)c(Cl)c2ccccc12,AC50,[2],"7.94 µM [rising, partial curve]"
same,AC50,[3],"25.1 µM [falling, partial curve]"
CC(=Nc1ccc(O)cc1)c1sc2ccccc2c1O,AC50,[1],"20 µM [falling, partial curve]"
CCCCN(C)c1nc(-c2ccco2)c2c(c1C#N)CC(C)(C)OC2,AC50,[2],"31.6 µM [falling, partial curve]"
same,AC50,[3],"15.8 µM [falling, partial curve]"
Cc1cc(N2CCCCC2)n2ncc(-c3ccc(Cl)cc3)c2n1,AC50,[1],"0.0251 µM [falling, full curve]"
CCc1ccc(NC(=O)c2ccc(CNS(=O)(=O)c3ccc4c(c3)C(C)(C)C(=O)N4C)cc2)cc1,AC50,[1],"7.94 µM [falling, single point]"
CC1=C(\C=C/C(C)=C/C=C\C(C)=C\C(=O)O)C(C)(C)CCC1,AC50,[1],"10 nM [rising, full curve, poor fit] [measured here: IkB-luc green channel] and 3.98 µM [rising, partial curve] [measured here: IkB-luc green channel]"
CCOC(=O)c1cc(-c2cc3ccccc3o2)n[nH]1,AC50,[1],"20 µM [falling, single point]"
COc1cccc2c1Oc1ncccc1N(C(=O)CCC(=O)NCc1ccc(OC(C)C)cc1)C2,AC50,[1],"2.51 µM [falling, partial curve, poor fit]"
Cc1nn(CC(=O)NC(C)c2ccccc2)c(=O)c2cc3occc3n12 (stereo not given),AC50,[1],"0.0158 µM [rising, full curve]"
NC(=O)COc1ccc(-c2noc(COc3ccc(Cl)cc3)n2)cc1,AC50,[1],"0.2 µM [rising, full curve, poor fit]"
COc1ccc2c(c1)CC(C(=O)Nc1c(C)cc(C)cc1C)CO2 (stereo not given),AC50,[1],"7.94 µM [falling, partial curve]"
COc1cccc(C(=O)NCC(c2ccc3c(c2)OCO3)N2CCN(C)CC2)c1 (stereo not given),AC50,[2],"1 µM [rising, partial curve, poor fit]"
same,AC50,[3],"0.501 µM [rising, partial curve, poor fit]"
COc1cc(CNCCCSc2nnnn2C)cc(Br)c1OC,AC50,[1],"1 µM [falling, partial curve]"
CCC(c1nnc(SCc2nc3ccccc3s2)n1Cc1ccccc1)N(C)C (stereo not given),AC50,[1],"12.6 µM [falling, partial curve]"
O=C(Nc1cccc(F)c1)C1CCN(c2nc3ccccc3nc2C(F)(F)F)CC1,AC50,[1],"25.1 µM [falling, partial curve]"
CCc1ccc(-c2nc(CN3CCCC(C(=O)NCc4ccccc4Cl)C3)c(C)o2)cc1 (stereo not given),AC50,[1],"31.6 µM [falling, partial curve]"
COc1ccccc1CNc1ccc(N2CCCCC2)cc1,AC50,[1],"15.8 µM [falling, partial curve]"
Brc1cccc(-c2nnc(SCc3nc4ccccc4[nH]3)o2)c1,AC50,[1],"25.1 µM [falling, single point]"
Cc1nn2c(=O)cc(COC(=O)c3ccccc3NC(=O)C3CCCCC3)nc2s1,AC50,[1],"39.8 µM [falling, single point]"
CCOc1ccc(N(CC)S(=O)(=O)N2CCCC(C(=O)NCc3ccccc3OCC)C2)cc1 (stereo not given),AC50,[1],"12.6 µM [falling, partial curve]"
COc1cc(-c2cc3n(C)c(C)c(CCC(=O)NC4CCC(C)CC4)c(=O)n3n2)cc(OC)c1OC (stereo not given),AC50,[1],"39.8 µM [falling, single point]"
O=C(NC1CCCC1)c1ccc2c(c1)N(Cc1c(F)cccc1Cl)C(=O)c1ccccc1S2,AC50,[1],"1 µM [falling, partial curve]"
Cc1ccc(-c2cc(C(=O)Nc3cc(C)ccc3C)[nH]n2)c(O)c1,AC50,[1],"7.94e-05 µM [falling, full curve]"
CCc1ccc(C2=CC(c3cccc(OC)c3OC)n3c(nc4ccccc43)N2)cc1 (stereo not given),AC50,[1],"0.631 µM [falling, partial curve]"
N#Cc1nc(-c2cccs2)oc1N1CCN(Cc2ccccc2)CC1,AC50,[1],"15.8 µM [falling, partial curve]"
CCCCCOC(=O)C1=C(C)N(C)C(=O)NC1c1cc(Br)c(O)c(OC)c1 (stereo not given),AC50,[1],"25.1 µM [falling, single point]"
Cc1ccc(N2CCN(S(=O)(=O)c3nnc(NC(=O)c4cccc(F)c4)s3)CC2)cc1,AC50,[1],"39.8 µM [falling, single point]"
CCCN1CCN(CCCNC(=O)c2cc3c(=O)[nH]c4ccccc4c3s2)CC1,AC50,[1],"10 µM [falling, partial curve]"
O=C(CCSCCc1ccccn1)Nc1ccccc1C(F)(F)F,AC50,[1],"39.8 µM [rising, partial curve, poor fit]"
Cc1ccc(-n2ncc3c(NCCc4ccccc4)ncnc32)cc1Cl,AC50,[1],"15.8 µM [falling, partial curve]"
CN(Cc1ccccc1)S(=O)(=O)c1ccc2[nH]cc(C(=O)NCC3CCCO3)c(=O)c2c1 (stereo not given),AC50,[1],"25.1 µM [falling, partial curve]"
COCCCNc1oc(-c2ccc(COc3ccccc3C)o2)nc1C#N,AC50,[1],"31.6 µM [falling, single point]"
COc1ccc(OC)c(NC(=O)c2cc3n(n2)C(C(F)(F)F)CC(c2ccc4c(c2)OCO4)N3)c1 (stereo not given),AC50,[1],"10 µM [falling, partial curve]"
COc1cccc(OCCn2c(-c3ccc(Cl)cc3)nc3ccccc3c2=O)c1,AC50,[1],"20 µM [falling, partial curve]"
CCC(CC)C(=O)Nc1cccc(-c2cn3cccnc3n2)c1,AC50,[1],"2.51 µM [rising, partial curve]"
CCC1=Nc2cc(C(=O)NC3CCCC3)ccc2Sc2ccc(Cl)cc21,AC50,[2],"3.16 µM [rising, full curve, poor fit]"
same,AC50,[3],"39.8 µM [falling, single point]"
COc1ccccc1N1CCN(C(=O)CCCn2c(=O)[nH]c3ccsc3c2=O)CC1,AC50,[1],"25.1 µM [falling, partial curve, poor fit]"
Cc1ccc2nc3sc(C(=O)Nc4ccc(F)cc4)cc3cc2c1,AC50,[1],"5.01 µM [falling, full curve, poor fit]"
O=C(COc1ccccc1)N1CCc2ccccc2C1,AC50,[1],"12.6 µM [falling, partial curve]"
CN(C(=O)CSc1nc2ccc(NC(=O)c3ccco3)cc2s1)c1ccccc1,AC50,[1],"31.6 µM [falling, single point]"
CCn1c(=O)cc(OCC(=O)NCCCN2CCN(c3cccc(Cl)c3)CC2)c2ccccc21,AC50,[1],"12.6 µM [falling, partial curve]"
Cc1ccc(CNS(=O)(=O)c2ccc(F)c(C(=O)Nc3ccc(C)c(F)c3)c2)cc1,AC50,[1],"0.01 µM [falling, full curve, poor fit]"
Cc1cc(NC(=O)c2cc(-c3ccncc3)nc3c(C)cccc23)no1,AC50,[1],"12.6 µM [falling, partial curve]"
O=C(Nc1ccc(F)cc1)c1ccc(-n2cnc3cccnc32)cc1,AC50,[1],"15.8 µM [falling, partial curve]"
O=C(NCCc1ccc(Cl)cc1)c1ccc(CS(=O)(=O)Cc2ccc(F)cc2)o1,AC50,[1],"0.126 µM [rising, full curve, poor fit]"
CCCC(=O)N(c1ccc2oc3c(c2c1)CCCC3)S(=O)(=O)c1ccc(CC)cc1,AC50,[1],"12.6 µM [falling, partial curve]"
O=C(O)c1c[nH]c2cc(OCc3ccccc3)ccc2c1=O,AC50,[1],"0.316 µM [falling, full curve]"
COc1ccc(OC)c(-n2c(=O)[nH]c3cc(C(=O)NCCc4ccc(OC)c(OC)c4)ccc3c2=O)c1,AC50,[1],"25.1 µM [falling, partial curve]"
COc1ccc(NCc2nc3ccccc3n2CCOc2ccccc2C)cc1,AC50,[1],"3.98 µM [falling, full curve]"
C1=C(CCNc2nnnn2-c2ccccc2)CCCC1,AC50,[1],"12.6 µM [falling, partial curve]"

# Reformatted: entries from further up
compound	measurement	setting	value
CCC(c1nnc(SCc2nc3ccccc3s2)n1Cc1ccccc1)N(C)C (stereo not given)	AC50	[1]	12.6 µM [falling, partial curve]
O=C(Nc1cccc(F)c1)C1CCN(c2nc3ccccc3nc2C(F)(F)F)CC1	AC50	[1]	25.1 µM [falling, partial curve]
CCOc1ccc(N(CC)S(=O)(=O)N2CCCC(C(=O)NCc3ccccc3OCC)C2)cc1 (stereo not given)	AC50	[1]	12.6 µM [falling, partial curve]
CCCN1CCN(CCCNC(=O)c2cc3c(=O)[nH]c4ccccc4c3s2)CC1	AC50	[1]	10 µM [falling, partial curve]
